In PubChem BioAssay AID2685 (National Center for Advancing Translational Sciences (NCATS), 2010):
The other results are listed elsewhere or left out. The main result of the screen is listed elsewhere. These columns were measured beside it and carry no call. The list favours compounds with an active or inconclusive main result. The note in brackets gives the kind of curve behind each potency; many fits are weak.

Test: qHTS Assay for Lipid Storage Modulators in Drosophila S3 Cells;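 for cell number change: cells counted by Cell Tracker Red CMTPX staining in the red channel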
Conditions: BODIPY lipid droplet fluorescence, 18-24 h; for cell number change: measured here: cell count max response, cells fed with added oleic acid
Summary of the method: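 Drosophila S3 cells loaded with oleic acid (400 uM, as added) and compounds at several concentrations; lipid droplets imaged by 488-nm laser-scanning cytometry, 500–530 nm intensity and object ratio to cell channel. Percent activity normalized to 20 uM Triacsin C.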

[1] = measured here: lipid fluorescence (Fed channel) AC50, cells fed with added oleic acid
[2] = measured here: cell number channel AC50, cells fed with added oleic acid

| SMILES | cell number change | AC50 [1] | AC50 [2] |
| --- | --- | --- | --- |
| Cc1nnc(SCC(=O)Nc2ccccc2F)n1-c1ccc(F)cc1 | 18.6% | 0.0291 µM [rising, full curve, poor fit] | – |
| COC(=O)Cn1c(=NC(=O)c2cc(OC)c(OC)c(OC)c2)sc2cc(OC)ccc21 | 57.9% | 5.17 µM [rising, full curve] | 8.2 µM [rising, partial curve] |
| O=C(/C=C/c1ccc([N+](=O)[O-])cc1)/C=C/c1ccco1 | 12.9% | 11.6 µM [falling, single point] | – |
| CCOc1ccc(NS(=O)(=O)c2ccc(C(=O)NNC(=O)c3ccccc3O)cc2)cc1 | -11.9% | 3.66 µM [falling, single point] | – |
| CN1C(=O)CC(N2CCN(C(c3ccccc3)c3ccccc3)CC2)C1=O (configuration not stated) | 4.79% | 20.6 µM [falling, single point] | – |
| C/C(=N\NC(=O)c1ccc(NS(=O)(=O)c2cccs2)cc1)c1cccs1 | -9.61% | 0.651 µM [falling, full curve] | 0.731 µM [falling, single point] |
| COCCSc1nc2c(c(=O)[nH]c(=O)n2C)n1CCC(C)C | -7.19% | 0.164 µM [falling, full curve, poor fit] | – |
| O=c1c(C=Nc2cccc(C(F)(F)F)c2)c[nH]n1-c1cccc(Cl)n1 | -8.65% | 0.651 µM [rising, full curve] | – |
| COc1ccc(NC(=O)CNc2cccc(C#N)c2)cc1Cl | 6.43% | 6.51 µM [rising, single point] | – |
| CCOC(=O)CSc1nnc(NC(=O)c2ccc3c(c2)OCO3)s1 | 19.9% | 0.58 µM [rising, single point] | – |
| COc1cccc(C2c3[nH]c4ccccc4c3CCN2Cc2cnn(C)c2)c1 (configuration not stated) | – | 7.31 µM [falling, single point] | – |
| COc1ccc2c(c1)NC1(O)c3ccccc3C(=O)C21O (configuration not stated) | -5.28% | 0.184 µM [falling, full curve, poor fit] | – |
| Clc1ccc2[nH]cc(-c3nnnn3-c3ccc4ccccc4c3)c2c1 | 74.9% | 2.31 µM [rising, partial curve] | 9.2 µM [rising, partial curve] |
| O=C(CN1CCCCCC1)Nc1ccc([N+](=O)[O-])cc1Br | 7.98% | – | – |
| O=C(NCC1CCCO1)c1nn2c(C(F)(F)F)cc(-c3cccs3)nc2c1Br (configuration not stated) | 15% | – | – |
| O=C(Nc1c2c(nn1-c1ccccc1)CS(=O)(=O)C2)c1ccccc1Br | -11.8% | 0.731 µM [rising, single point] | – |
| CC1=[N+](C)c2c(ccc3cccnc23)C1(C)C | -50.5% | 2.31 µM [falling, full curve] | 4.11 µM [falling, full curve] |
| O=C(Nc1ccccc1)c1ccc(NCc2ccco2)c(S(=O)(=O)N2CCOCC2)c1 | – | – | 6.51 µM [rising, single point] |
| N/C(=N\S(=O)(=O)c1cc(C(F)(F)F)cc(C(F)(F)F)c1)c1ccccc1 | -49.4% | 4.61 µM [falling, partial curve] | 5.17 µM [falling, partial curve] |
| CCOC(=O)N1CCN(C(=O)c2noc3c2COc2ccccc2-3)CC1 | -1.42% | – | – |

| SMILES | cell number change | AC50 [1] | AC50 [2] |
| --- | --- | --- | --- |
| CCOC(=O)CSc1nnc(CCCCCN2C(=O)c3cccc4cccc(c34)C2=O)o1 | – | 18.4 µM [rising, partial curve] | 0.731 µM [rising, single point] |
| COc1cccc(CNC(=O)c2cccnc2Sc2ccc(C)cc2C)c1 | 16.4% | – | – |
| Cc1ccc(NC(=O)C(OC(=O)c2ccc(NC(N)=O)cc2)c2ccccc2)cc1Cl (configuration not stated) | -41.4% | 29.1 µM [falling, single point] | 29.1 µM [falling, single point] |
| COc1ccccc1N=Nc1c(C)[nH]n(-c2ccccc2)c1=O | – | 13 µM [falling, partial curve] | – |
| N#CCCNS(=O)(=O)c1ccc(C(=O)OCCCOC(=O)c2ccc(S(=O)(=O)NCCC#N)cc2)cc1 | 14.1% | 29.1 µM [rising, single point] | – |
| CCN(CC)CCNC(=O)C(=O)Nc1cc2c3c(c1)CCN3C(=O)CC2 | -30.6% | – | – |
| Cc1ccc(NC(=O)c2nnn(CC(=O)Nc3ccccc3)c2N)cc1C | – | – | 1.16 µM [rising, partial curve] |
| CCOc1ccc(C(=O)Nc2c(C(N)=O)oc3ccccc23)cc1 | -26.9% | 29.1 µM [falling, single point] | – |
| COc1ccc2c(c1)CCc1c(C(=O)N3CCCCCC3)noc1-2 | -22.6% | – | – |
| CCN(CC(=O)Nc1c(F)cccc1F)C(=O)c1cc2ccccc2oc1=O | -13.8% | 16.4 µM [rising, single point] | – |
| Cc1cc2c(cc1C)CSC(c1c(O)ccc3ccccc13)SC2 | -41.7% | 29.1 µM [falling, single point] | 29.1 µM [falling, single point] |
| COc1cc(/C=C/C(=O)OCC(=O)NCc2ccco2)ccc1O | 32.9% | – | 13 µM [rising, single point] |
| O=C(c1ccncc1)N1C2C=CC(C2)C1(C(F)(F)F)C(F)(F)F (configuration not stated) | 38% | – | 29.1 µM [rising, single point] |
| COc1cccc(CN2CCNC(=O)C2CC(=O)N(C)CC2CCOCC2)c1OC (configuration not stated) | 19.4% | – | – |
| O=C(OC(C(=O)NCc1ccco1)C(OC(=O)c1ccccc1)C(=O)NCc1ccco1)c1ccccc1 (configuration not stated) | -5.31% | 0.058 µM [falling, full curve, poor fit] | – |
| Cn1cnnc1SCNC(=O)C(F)(F)F | -5.85% | 0.517 µM [falling, full curve] | – |
| Cc1nc2ccccn2c1C(=O)N/N=C/c1ccc(F)cc1 | – | 29.1 µM [rising, partial curve, poor fit] | – |
| COCCCn1c(C(=O)NCCC2=CCCCC2)cc2c(=O)n3cccc(C)c3nc21 | 6.87% | 1.46 µM [falling, full curve] | – |
| CC(=O)c1ccc(C(=O)Nc2ccc(N3CCOCC3)cc2)cc1 | -14.5% | – | – |

Arranged by formula weight (smallest number first): part of the list above

| SMILES | cell number change | AC50 [1] | AC50 [2] |
| --- | --- | --- | --- |
| CC1=[N+](C)c2c(ccc3cccnc23)C1(C)C | -50.5% | 2.31 µM [falling, full curve] | 4.11 µM [falling, full curve] |
| COc1ccccc1N=Nc1c(C)[nH]n(-c2ccccc2)c1=O | – | 13 µM [falling, partial curve] | – |
| COc1cccc(CNC(=O)c2cccnc2Sc2ccc(C)cc2C)c1 | 16.4% | – | – |
